Binding data for six substances are collected here from paper PMC9583544.

Sequences of proteins named here, by UniProt entry; tags and fusion partners are left off. Residues count along the entry.
UniProt Q14195: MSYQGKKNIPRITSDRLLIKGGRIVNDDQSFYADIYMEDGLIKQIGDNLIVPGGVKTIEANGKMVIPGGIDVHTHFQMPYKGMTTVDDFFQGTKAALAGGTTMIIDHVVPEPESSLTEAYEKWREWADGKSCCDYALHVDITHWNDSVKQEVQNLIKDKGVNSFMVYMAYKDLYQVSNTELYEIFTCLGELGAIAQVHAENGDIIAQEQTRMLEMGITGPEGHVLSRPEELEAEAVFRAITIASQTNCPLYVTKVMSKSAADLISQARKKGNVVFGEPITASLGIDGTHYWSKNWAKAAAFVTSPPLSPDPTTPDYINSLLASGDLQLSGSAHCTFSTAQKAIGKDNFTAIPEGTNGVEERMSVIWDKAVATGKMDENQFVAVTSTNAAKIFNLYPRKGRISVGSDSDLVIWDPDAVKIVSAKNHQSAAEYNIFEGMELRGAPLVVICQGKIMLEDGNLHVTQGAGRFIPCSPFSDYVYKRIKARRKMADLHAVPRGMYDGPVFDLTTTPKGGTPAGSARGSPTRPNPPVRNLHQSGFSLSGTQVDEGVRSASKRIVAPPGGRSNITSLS
UniProt P68104: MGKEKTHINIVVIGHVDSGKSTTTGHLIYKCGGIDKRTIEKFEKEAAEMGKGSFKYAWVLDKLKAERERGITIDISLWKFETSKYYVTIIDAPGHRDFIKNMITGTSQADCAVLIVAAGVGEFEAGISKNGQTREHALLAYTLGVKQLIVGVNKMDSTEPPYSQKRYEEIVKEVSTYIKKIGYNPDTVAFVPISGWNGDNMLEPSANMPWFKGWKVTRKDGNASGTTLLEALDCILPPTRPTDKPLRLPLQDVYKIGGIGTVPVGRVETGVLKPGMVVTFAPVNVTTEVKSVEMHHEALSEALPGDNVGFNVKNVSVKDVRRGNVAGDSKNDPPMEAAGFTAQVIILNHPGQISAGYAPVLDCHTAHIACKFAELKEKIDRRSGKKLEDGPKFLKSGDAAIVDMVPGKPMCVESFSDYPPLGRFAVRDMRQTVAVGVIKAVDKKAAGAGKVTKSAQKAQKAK
UniProt P11021, residues 19-654: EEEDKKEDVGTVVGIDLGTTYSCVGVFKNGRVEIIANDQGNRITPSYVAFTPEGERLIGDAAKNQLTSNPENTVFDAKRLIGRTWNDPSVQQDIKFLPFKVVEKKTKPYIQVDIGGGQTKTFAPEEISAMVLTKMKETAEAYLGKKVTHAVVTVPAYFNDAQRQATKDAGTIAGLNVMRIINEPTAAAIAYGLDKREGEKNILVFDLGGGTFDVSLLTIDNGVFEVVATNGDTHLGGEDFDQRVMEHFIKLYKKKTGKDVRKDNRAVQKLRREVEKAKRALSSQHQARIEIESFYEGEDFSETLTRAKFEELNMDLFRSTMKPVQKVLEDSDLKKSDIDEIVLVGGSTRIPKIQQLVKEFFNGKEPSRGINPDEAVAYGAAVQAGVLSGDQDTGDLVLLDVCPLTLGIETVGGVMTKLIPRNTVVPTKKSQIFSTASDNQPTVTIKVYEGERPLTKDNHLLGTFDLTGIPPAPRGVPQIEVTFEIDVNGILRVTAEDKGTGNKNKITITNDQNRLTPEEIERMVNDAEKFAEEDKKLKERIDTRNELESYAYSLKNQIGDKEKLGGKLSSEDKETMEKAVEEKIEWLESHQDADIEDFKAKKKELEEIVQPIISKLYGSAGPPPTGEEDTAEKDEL
UniProt P11142: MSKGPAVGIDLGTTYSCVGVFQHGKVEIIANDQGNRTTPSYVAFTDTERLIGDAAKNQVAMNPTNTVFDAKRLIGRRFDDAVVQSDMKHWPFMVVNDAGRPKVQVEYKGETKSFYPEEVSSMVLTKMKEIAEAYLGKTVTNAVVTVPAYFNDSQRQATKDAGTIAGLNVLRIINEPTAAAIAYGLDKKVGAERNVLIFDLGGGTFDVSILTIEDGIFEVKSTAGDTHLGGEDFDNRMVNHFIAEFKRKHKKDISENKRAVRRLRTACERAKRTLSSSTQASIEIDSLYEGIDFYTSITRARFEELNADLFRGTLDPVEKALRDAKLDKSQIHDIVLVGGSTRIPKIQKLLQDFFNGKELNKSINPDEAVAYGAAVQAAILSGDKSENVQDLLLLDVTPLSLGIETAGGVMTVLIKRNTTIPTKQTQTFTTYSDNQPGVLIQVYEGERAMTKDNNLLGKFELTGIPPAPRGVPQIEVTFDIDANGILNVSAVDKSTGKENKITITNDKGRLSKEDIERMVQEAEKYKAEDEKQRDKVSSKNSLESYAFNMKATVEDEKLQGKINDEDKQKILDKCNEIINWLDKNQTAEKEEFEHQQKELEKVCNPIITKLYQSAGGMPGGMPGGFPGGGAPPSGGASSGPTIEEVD
UniProt P10809, residues 27-573: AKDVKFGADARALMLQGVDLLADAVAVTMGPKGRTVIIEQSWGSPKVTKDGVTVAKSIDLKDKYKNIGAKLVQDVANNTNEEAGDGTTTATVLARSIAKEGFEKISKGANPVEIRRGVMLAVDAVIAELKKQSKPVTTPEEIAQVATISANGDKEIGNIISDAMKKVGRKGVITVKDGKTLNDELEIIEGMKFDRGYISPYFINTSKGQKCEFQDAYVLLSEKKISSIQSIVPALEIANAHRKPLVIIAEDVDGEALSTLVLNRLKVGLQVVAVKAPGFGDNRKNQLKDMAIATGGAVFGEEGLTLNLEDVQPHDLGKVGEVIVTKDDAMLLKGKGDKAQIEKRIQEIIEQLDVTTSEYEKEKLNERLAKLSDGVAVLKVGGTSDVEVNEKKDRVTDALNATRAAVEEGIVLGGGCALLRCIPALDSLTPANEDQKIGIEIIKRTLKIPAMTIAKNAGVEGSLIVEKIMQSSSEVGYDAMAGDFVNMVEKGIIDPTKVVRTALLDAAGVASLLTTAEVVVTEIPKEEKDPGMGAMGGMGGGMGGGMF
UniProt P22314: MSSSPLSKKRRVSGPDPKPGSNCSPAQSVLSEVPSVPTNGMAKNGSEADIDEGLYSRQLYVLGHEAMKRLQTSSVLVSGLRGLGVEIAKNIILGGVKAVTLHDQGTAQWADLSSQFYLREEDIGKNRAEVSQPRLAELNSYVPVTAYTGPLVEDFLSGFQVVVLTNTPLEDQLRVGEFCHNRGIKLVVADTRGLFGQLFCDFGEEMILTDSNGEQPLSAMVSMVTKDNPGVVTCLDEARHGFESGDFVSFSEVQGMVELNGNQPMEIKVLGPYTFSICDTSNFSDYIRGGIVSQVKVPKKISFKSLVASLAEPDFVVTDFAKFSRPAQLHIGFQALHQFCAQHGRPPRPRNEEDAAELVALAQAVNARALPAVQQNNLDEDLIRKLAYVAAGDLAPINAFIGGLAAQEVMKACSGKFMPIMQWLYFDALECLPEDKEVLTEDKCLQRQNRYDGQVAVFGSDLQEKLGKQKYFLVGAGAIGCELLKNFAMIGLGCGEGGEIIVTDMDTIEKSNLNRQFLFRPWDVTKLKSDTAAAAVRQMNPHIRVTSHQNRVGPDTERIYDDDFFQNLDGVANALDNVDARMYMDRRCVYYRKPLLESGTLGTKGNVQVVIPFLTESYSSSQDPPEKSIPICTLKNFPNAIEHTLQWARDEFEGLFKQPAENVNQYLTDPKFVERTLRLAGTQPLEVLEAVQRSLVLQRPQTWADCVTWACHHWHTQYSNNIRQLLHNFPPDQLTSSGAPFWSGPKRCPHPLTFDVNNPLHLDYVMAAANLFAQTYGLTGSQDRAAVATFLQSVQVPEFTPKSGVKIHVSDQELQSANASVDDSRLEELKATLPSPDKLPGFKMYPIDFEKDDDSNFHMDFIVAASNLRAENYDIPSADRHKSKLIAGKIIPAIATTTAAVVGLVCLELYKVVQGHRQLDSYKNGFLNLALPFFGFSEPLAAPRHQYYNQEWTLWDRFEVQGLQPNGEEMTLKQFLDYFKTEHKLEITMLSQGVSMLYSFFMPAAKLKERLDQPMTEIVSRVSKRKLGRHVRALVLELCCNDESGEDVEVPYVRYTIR

Results are given in words; binding and its absence hold for the method and conditions named. Binding seen in cells or lysates may run through a third protein. These calls come from enrichment with a bait or labelling near it, and not all partners need be listed.

This test addresses interferon stimulated gene (ISG) 15 (human (endogenous in IPSC-derived neurons)) (UniProt P05161). Kind of test: affinity purification with mass spectrometry; lysates of human IPSC-derived neurons (non-targeted control against ISG15 knockout) treated with 100 ng/mL IFNγ for 24 h; NDG lysis buffer (1% Nonidet P-40, 0.5% deoxycholate, 10% glycerol, 20 mM Tris, 137 mM NaCl, pH 8.0); immunoprecipitated with biotinylated anti-ISG15 (clone F9) on streptavidin magnetic nanoparticles; eluted in 5% glacial acetic acid; LC-MS; hits >5 counts and >5-fold enriched over ISG15 KO precipitates.

In the case of “DPYSL3/CRMP4 (from UniProt Q14195 1-570)”, the binding entry was “binds”.

Consider EEF1A1 (from UniProt P68104 1-462), for which the binding result is reported as “binds”. Next, HSPA5 (from UniProt P11021 19-654): “binds”; HSPA8 (from UniProt P11142 1-646): “binds”; HSPD1 (from UniProt P10809 27-573): “binds”. With UBA1 (from UniProt P22314 1-1058), the binding entry is recorded as “binds”.
